From PubChem BioAssay AID504834 (National Center for Advancing Translational Sciences (NCATS), 2011)
Among all 320,000 compounds or so, about 22,000 (6.9%) were called active. This list was built around the results that the source calls inconclusive (neither active nor inactive); the mix of calls is not that of the screen. Calls come from the whole dose curve; as a rule, active = well fitted inhibition curve with a large enough effect; inconclusive = small, poorly fitted or top-dose-only effect, or another doubt; inactive = no such curve, though single readings can be large or run the other way. Where the call is inconclusive, the potency comes from a doubtful curve fit.

assay: Primary qHTS for delayed death inhibitors of the malarial parasite plastid, 96 hour incubation; settings: P. falciparum luciferase reporter growth; series mostly up to 28.7 µM; activity change, negative = inhibition: at the top concentration
In short: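 Compounds incubated with erythrocytes infected by luciferase-expressing P. falciparum (2% hematocrit, 0.05% parasitemia final) for 96 hours, 37 C in 5% CO2. Growth inhibition scored as decreased luciferase luminescence.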
% is set by controls: 0 for no effect and ±100 for the full control effect; potency is the fitted concentration of half-maximal effect.

Compound	Potency	activity change, negative = inhibition
O=C(Nc1ccc2c(c1)OCCO2)C(c1ccc(F)cc1)N1CCCCC1 (stereo not given)	active: 8.28 µM	–
CCOC(=O)c1cnc(-c2cccc(OC)c2)[nH]c1=O	inconclusive: 2.62 µM [inhibitor, single point]	–
CC(C)=CCc1c2c(c3occ(-c4ccc(O)cc4)c(=O)c3c1O)C=CC(C)(C)O2	inconclusive: 9.28 µM [inhibitor, partial curve, poor fit]	–
CCn1cnc2cc(NC(=O)c3cccs3)ccc21	–	inactive: 143%
COc1cc(NC(=O)CNC(=O)Cn2c(C)cc3ccccc3c2=O)cc(OC)c1OC	inconclusive: 18.5 µM [inhibitor, single point]	–
COc1ccccc1P(=O)(Cc1ccccc1[N+](=O)[O-])c1ccccc1 (stereo not given)	inconclusive: 10.4 µM [inhibitor, single point]	–
C/C(=N/Nc1ccccc1[N+](=O)[O-])c1ccc([N+](=O)[O-])cc1	inconclusive: 0.586 µM [inhibitor, full curve, poor fit]	–
COc1cc(/C=N/Nc2nc3ccccc3s2)ccc1OC(=O)c1ccccc1F	inconclusive: 2.33 µM [inhibitor, single point]	–
COc1ccc2c(c1)CC(C)C/C2=N\NC(=O)c1ccco1 (stereo not given)	–	inactive: 13.4%
Cc1ccc(-c2cc(C(=O)N3CCCCC3)c3ccccc3n2)cc1C	–	inactive: 15.3%
O=C(OCc1cc(=O)n2c(n1)sc1ccccc12)c1ccc2c(=O)n3c(nc2c1)CCC3	inconclusive: 18.5 µM [inhibitor, single point]	–
Cc1ccc(NC(=O)Nc2cnccn2)cc1C	inconclusive: 18.5 µM [inhibitor, single point]	–
CC(C)(CNc1ccc([N+](=O)[O-])cc1Cl)N1CCOCC1	inconclusive: 5.86 µM [inhibitor, partial curve]	–
Cn1nc(C(F)(F)F)c(C#N)c1N1CCN(c2cccc(C(F)(F)F)c2)CC1	inconclusive: 3.29 µM [inhibitor, single point]	–
CCOC(=O)CSc1nnc(NCC(=O)OC(C)C)c(=O)[nH]1	inconclusive: 7.38 µM [inhibitor, partial curve, poor fit]	–
CCCOc1ccc(C(=O)NNC(=S)NC(=O)c2ccccc2)cc1	active: 3.29 µM	–
CCCCN(C(=S)Nc1cccc(SC)c1)C1CCN(C(C)=O)CC1	inconclusive: 18.5 µM [inhibitor, single point]	–
CCOC(=O)C1=C(C)OC(N)=C(C#N)C1c1c(C)nn(-c2ccccc2)c1Cl (stereo not given)	–	inactive: 6.96%
CC(=O)c1ccc(N2C(=NC(=O)COc3ccccc3)SC3CS(=O)(=O)CC32)cc1 (stereo not given)	inconclusive: 18.5 µM [inhibitor, single point]	–
COc1cc(C(=S)N2CCCCC2)ccc1OCC(=O)Nc1ccc(F)cc1	–	inactive: -14.1%
O=C(Nc1cccc(Cl)c1)c1ccc(F)c(S(=O)(=O)NCc2ccc3c(c2)OCO3)c1	inconclusive: 18.5 µM [inhibitor, single point]	–
CCCCS(=O)CC(COC)OC(=O)c1ccccc1 (stereo not given)	inconclusive: 18.5 µM [inhibitor, single point]	–
O=C1CCc2cc(S(=O)(=O)Nc3ccc(C(F)(F)F)cc3)cc3c2N1CC3	inconclusive: 9.28 µM [inhibitor, single point]	–
Cc1ccccc1NC(=O)c1cccc2nccnc12	inconclusive: 10.4 µM [inhibitor, partial curve, poor fit]	–

Compound	Potency	activity change, negative = inhibition
CCOc1cc(CNc2cccc3ccccc23)cc(Br)c1OCC(=O)NC(C)(C)C	active: 9.28 µM	–
Cc1cc(Cl)c(S(=O)(=O)N2CCCCCC2)cc1OCC(=O)NC1CCCCC1	active: 0.0586 µM	–
CCc1nn(CC(=O)NCc2cccnc2)c(=O)c2cc3occc3n12	active: 10.4 µM	–
CC(C)(C)c1ccc(C(=O)N/C(=C\c2cccc([N+](=O)[O-])c2)C(=O)Nc2cccc(C(=O)O)c2)cc1	inconclusive: 11.7 µM [inhibitor, single point]	–
CN1CCN(C(=O)CCS(=O)(=O)c2cc3c(cc2Cl)NC(=O)CO3)CC1	–	inactive: 48%
COc1ccc(C(=O)c2sc(Nc3ccccc3)c(C(=O)Nc3ccc(OC)c(OC)c3)c2N)cc1	inconclusive: 10.4 µM [inhibitor, single point]	–
O=C(OCc1ccc(Cl)c(Cl)c1)c1ccccn1	–	inactive: -28.4%
COC(=O)C1=C(N)Oc2cc(C)n(CCc3ccccc3)c(=O)c2C1c1cccnc1 (stereo not given)	inconclusive: 2.62 µM [inhibitor, partial curve, poor fit]	–
Cn1c(=O)c2c(nc(SCC(=O)c3ccccc3F)n2C)n(C)c1=O	active: 1.85 µM	–
COc1cc(/C=N/n2c(-c3ccccc3)n[nH]c2=S)ccc1O	inconclusive: 18.5 µM [inhibitor, partial curve, poor fit]	–
CCSc1nnc2c(n1)OC1(CCCC1)Nc1ccccc1-2	inconclusive: 10.4 µM [inhibitor, single point]	–
CCOc1cc(N2CCOCC2)c(OCC)cc1NC(=O)C1=COCCO1	inconclusive: 18.5 µM [inhibitor, single point]	–
Cn1c(C(=O)N2CCC(C(=O)NCc3ccccc3)CC2)cc2sccc21	inconclusive: 5.86 µM [inhibitor, partial curve, poor fit]	–
Nc1ccc2oc3ncccc3c(=O)c2c1	–	inactive: -11.1%
O=C(CSCc1c(F)cccc1Cl)Nc1cccnc1	inconclusive: 13.1 µM [inhibitor, partial curve, poor fit]	–
COc1ccc(N2CCN(C(=O)CC34CC5CC(CC(C5)C3)C4)CC2)c([N+](=O)[O-])c1	inconclusive: 9.28 µM [inhibitor, single point]	–
COc1cc(C2C(C#N)=C(N)N(N(C)C)C3=C2C(=O)CC(C)(C)C3)ccc1O (stereo not given)	–	inactive: 84.2%
O=C(NCc1ccccc1Cl)C1CCC(CNc2c(N3CCCCC3)c(=O)c2=O)CC1 (stereo not given)	active: 10.4 µM	–
CCOC(=O)CN1C(=O)N[C@H](c2ccc(Br)cc2)C(C(C)=O)=C1C	–	inactive: 0.0996%
CCc1c(C(=O)Nc2cc(C(=O)OC)ccc2C)csc1C	–	inactive: -13.7%
COc1ccc(C2CC(c3ccccc3)=NN2c2ccc(S(N)(=O)=O)cc2)cc1 (stereo not given)	inconclusive: 10.4 µM [inhibitor, single point]	–
CCN1CCCC1CNC(=O)C1CCN(Cc2nc(-c3cccc(Br)c3)oc2C)CC1 (stereo not given)	inconclusive: 0.117 µM [inhibitor, full curve, poor fit]	–
O=C1[C@H]2[C@@H](c3ccc(F)cc3)N3C(=O)N(c4cccc(F)c4)C(=O)[C@@]3(Cc3ccccc3)[C@H]2C(=O)N1C1CCCCC1	inconclusive: 9.28 µM [inhibitor, single point]	–
O=C(CF)NC(NC(=S)Nc1cccc([N+](=O)[O-])c1)C(Cl)(Cl)Cl (stereo not given)	–	inactive: 28.8%

Record cards, as listed above. Order of values: Potency	activity change, negative = inhibition
CN1CCN(C(=O)CCS(=O)(=O)c2cc3c(cc2Cl)NC(=O)CO3)CC1 as listed: –	inactive: 48%
O=C1[C@H]2[C@@H](c3ccc(F)cc3)N3C(=O)N(c4cccc(F)c4)C(=O)[C@@]3(Cc3ccccc3)[C@H]2C(=O)N1C1CCCCC1 as listed: inconclusive: 9.28 µM [inhibitor, single point]	–
COc1ccc(C(=O)c2sc(Nc3ccccc3)c(C(=O)Nc3ccc(OC)c(OC)c3)c2N)cc1 as listed: inconclusive: 10.4 µM [inhibitor, single point]	–
COc1cc(C2C(C#N)=C(N)N(N(C)C)C3=C2C(=O)CC(C)(C)C3)ccc1O (stereo not given) as listed: –	inactive: 84.2%

(list continues)

Compound	Potency	activity change, negative = inhibition
COc1ccc(S(=O)(=O)N2CCOCC2)cc1Cl	inconclusive: 18.5 µM [inhibitor, single point]	–
Cc1cc(SCC(=O)c2ccc(O)c(O)c2)nc2ccccc12	–	inactive: 12.2%
CC(C)COP(=O)(OCC(C)C)C(Nc1ccccc1)c1ccc2c(c1)OCO2 (stereo not given)	inconclusive: 13.1 µM [inhibitor, single point]	–
Cc1ccc(C(=O)Nc2cc3c(cc2N2CCCCC2)n(C)c(=O)n3C)cc1	–	inactive: 25%
NC(=O)C1CCN(CC(=O)Nc2ccccc2Sc2ccccc2)CC1	–	inactive: -19.5%
c1c2c(cc3sc(N4CCOCC4)nc13)OCCO2	inconclusive: 7.38 µM [inhibitor, partial curve, poor fit]	–
COc1ccc(-c2csc(NC(=O)Nc3ccccc3)n2)cc1	–	inactive: -3.11%
CCOCCCN1CC(C(=O)NCCc2ccc(C)cc2)CC1=O (stereo not given)	inconclusive: 0.117 µM [inhibitor, full curve]	–
COc1ccccc1N1CCN(C(=O)c2cc3sccc3n2C)CC1	inconclusive: 0.738 µM [inhibitor, full curve, poor fit]	–
Cn1c(SCc2ccccc2[N+](=O)[O-])nnc1-c1cccnc1	inconclusive: 10.4 µM [inhibitor, single point]	–
Cc1ccc(NS(=O)(=O)c2ccc3c(c2)CC(=O)N3)cc1F	–	inactive: -27.8%
Cc1nnc2c(NC3CCCCC3)nc3ccccc3n12	–	inactive: -5.14%
CC(C)C(CCNCc1ccccn1)c1ccc(Cl)cc1 (stereo not given)	inconclusive: 13.1 µM [inhibitor, partial curve, poor fit]	–
O=[N+]([O-])c1ccc(NC(=S)NCc2ccncc2)cc1	inconclusive: 2.33 µM [inhibitor, partial curve, poor fit]	–
CC(C)C(=O)Nc1sc2c(c1C(N)=O)CCN(Cc1ccccc1)C2	–	inactive: 62%
O=C(/C=C/NNC(=O)c1ccccc1)c1ccccc1	–	inactive: 5.24%
CN(CC(=O)Nc1ccccc1Sc1ccccc1)Cc1nc2ccccc2c(=O)[nH]1	inconclusive: 18.5 µM [inhibitor, single point]	–
COC(=O)c1cccc(Nc2ncnc3ccc(C)cc23)c1	inconclusive: 11.7 µM [inhibitor, partial curve, poor fit]	–
COc1cccc(CC2(CO)CCN(C(=O)NC3CCCCC3)CC2)c1	inconclusive: 3.7 µM [inhibitor, single point]	–
CCOC(=O)c1[nH]c2ccc(F)cc2c1NC(=O)C(C)N1CCc2cc(OC)c(OC)cc2C1 (stereo not given)	inconclusive: 2.94 µM [inhibitor, full curve]	–
O=C(Cc1ccccc1)Nc1cccc([N+](=O)[O-])c1	–	inactive: -1.11%
O=C(c1ccc(Br)cc1)N1CCC(C(=O)N2CCN(c3ccccc3)CC2)CC1	inconclusive: 2.62 µM [inhibitor, full curve]	–
